PubChem BioAssay AID2685 (National Center for Advancing Translational Sciences (NCATS), 2010)
The other results are listed elsewhere or left out. Further columns of the screen follow, without active or inactive calls. Most of these compounds were active or inconclusive in the main read-out, so they are no random draw. The note in brackets gives the kind of curve behind each potency; many fits are weak.

Assay: qHTS Assay for Lipid Storage Modulators in Drosophila S3 Cells;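 on cell number change: cells counted by Cell Tracker Red CMTPX staining in the red channel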
Details: BODIPY lipid droplet fluorescence, 18-24 h; for cell number change: measured here: cell count max response, cells fed with added oleic acid
Procedure, shortened: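 Laser-scanning cytometry quantifies lipid droplet accumulation (500–530 nm total intensity; droplet/cell object ratio) in oleic acid-fed (400 uM added) Drosophila S3 cells treated with a concentration series. 20 uM Triacsin C defined 100% inhibition.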

[1] = measured here: cell number channel AC50, cells fed with added oleic acid
[2] = measured here: lipid fluorescence (Fed channel) AC50, cells fed with added oleic acid

SMILES	cell number change	AC50 [1]	AC50 [2]
CCn1nnnc1NCc1c(OC)ccc2ccccc12	19.4%	0.0326 µM [rising, full curve, poor fit]	
COc1ccc(N2CCN(c3ncnc4scc(-c5ccccc5)c34)CC2)cc1	-22.4%		35.5 µM [falling, single point]
Cc1cccc(NC(=O)CCCSc2nc3ccccc3[nH]2)c1	2.5%		0.206 µM [falling, full curve, poor fit]
C#CC(C)(CC)NC(=O)c1cc2nc(C3CC3)cc(C(F)(F)F)n2n1 (centres undefined)			0.13 µM [rising, full curve, poor fit]
O=C(NCc1ccccc1)c1cc[n+](Cc2ccccc2)cc1	-60.5%	0.259 µM [falling, full curve, poor fit]	
COC(=O)c1cc2sccc2n1CC(=O)Nc1cc(OC)cc(OC)c1	38.7%	29.1 µM [rising, single point]	
CCOC(=O)c1cc(C#N)c(SC(C)C(=O)NC2CCCCC2)nc1C (centres undefined)	-22.3%	3.66 µM [falling, single point]	
Cc1ccc(S(=O)(=O)N2CCCC2C(=O)N2CCCCCC2)cc1 (centres undefined)	-85.9%	3.66 µM [falling, full curve]	3.66 µM [falling, full curve]
CN1CCN(S(=O)(=O)c2cccc(C(=O)NC3(C)CCS(=O)(=O)C3)c2)CC1 (centres undefined)	-61.4%	0.92 µM [falling, full curve]	0.92 µM [falling, full curve]
CC(=O)Oc1ccc(C(=O)Nc2ccccc2C(=O)NCC(C)C)cc1	20.1%		
CNS(=O)(=O)c1cccc(C(=O)OCc2csc(-c3ccccc3)n2)c1	29.2%		18.4 µM [rising, partial curve]
CC(C)C(=O)NCCc1nc2ccccc2n1CCc1ccccc1	1.27%		1.84 µM [falling, partial curve]
N#CC(C#N)=Cc1cccn1-c1ccc(C(=O)O)cc1	1.06%	0.164 µM [rising, full curve]	0.116 µM [rising, full curve, poor fit]
CN(C)S(=O)(=O)N1CCCN(S(=O)(=O)N(C)C)CC1	-29%		2.06 µM [falling, full curve]
O=C1C(Cl)=C(N2CCC(C(=O)O)CC2)C(=O)c2ccccc21	-34.3%	18.4 µM [falling, single point]	18.4 µM [falling, single point]
CC[N+](C)(C)CCN(Cc1ccc(Cl)cc1)c1ccccn1	-36.9%	29.1 µM [falling, single point]	
COc1ccc(C2C=C(c3ccccc3)Nc3nc(NC(C)=O)nn32)cc1 (centres undefined)	4.89%		5.17 µM [rising, full curve]
CC(=O)Nc1nc2c(c3c1c(=O)oc1ccccc13)CCCC2	-15.3%		13 µM [falling, partial curve]
COc1cc(OC)cc(C(=O)N[C@H](C(=O)NCCc2ccc(S(N)(=O)=O)cc2)C(C)C)c1	6.84%		6.51 µM [falling, single point]
COc1ccccc1NS(=O)(=O)c1ccc(-c2cnc(C3CC3)o2)cc1	-7.79%		29.1 µM [rising, single point]

Arranged by count of non-hydrogen atoms (falling): 3 of the compounds above
SMILES	cell number change	AC50 [1]	AC50 [2]
CCOC(=O)c1cc(C#N)c(SC(C)C(=O)NC2CCCCC2)nc1C (centres undefined)	-22.3%	3.66 µM [falling, single point]	
Cc1ccc(S(=O)(=O)N2CCCC2C(=O)N2CCCCCC2)cc1 (centres undefined)	-85.9%	3.66 µM [falling, full curve]	3.66 µM [falling, full curve]
CC[N+](C)(C)CCN(Cc1ccc(Cl)cc1)c1ccccn1	-36.9%	29.1 µM [falling, single point]	

Further results

SMILES	cell number change	AC50 [1]	AC50 [2]
O=C1Nc2ccccc2/C1=C\C(=O)c1ccccc1	-50%	20.6 µM [falling, single point]	1.64 µM [falling, partial curve]
CCOc1ccccc1OCC(=O)Nc1nnc(C)s1	60.1%		29.1 µM [rising, single point]
Cn1c(N2CCN(C(=O)NCc3ccccc3)CC2)nc2ccccc21	-19.6%		
Cc1cc(N2CCCC2)ccc1NC(=O)COc1ccccc1	84.7%	18.4 µM [rising, partial curve]	
O=C(CCS(=O)(=O)c1ccc2c(c1)NC(=O)CO2)NCCc1ccccc1	35.5%	6.51 µM [rising, partial curve]	
C=CCc1cc(Cl)ccc1OCCNCCOC	26.1%		0.13 µM [rising, full curve, poor fit]
COc1cccc(NC(=O)Nc2ccc(Cc3ccncc3)cc2)c1	13.6%		7.31 µM [rising, partial curve]
C/C(=N\NS(=O)(=O)c1ccc(Cl)cc1)c1ccc(NC(=O)c2ccco2)cc1	-3.73%		
CC(C)C(OC(=O)CN1C(=O)c2ccccc2C1=O)C(=O)NC1CCCCC1 (centres undefined)	-7.39%		
CSc1ncccc1C(=O)OCc1ccc([N+](=O)[O-])cc1	-9.65%		
O=C(c1ccc(Br)c(S(=O)(=O)N2CCCCC2)c1)N1CCCCC1	31.3%	35.5 µM [rising, partial curve, poor fit]	
COc1ccc(NC(=O)Nc2cccc3ccccc23)cc1OC	36.7%	23.1 µM [rising, partial curve, poor fit]	1.3 µM [rising, full curve, poor fit]
Cc1cccc(S(=O)(=O)Nc2cccc3c2C(=O)c2ccccc2-3)c1	-6.54%	1.16 µM [rising, partial curve]	0.461 µM [rising, full curve]
Cc1ccc(CNC(=O)c2cn(C3CCCCC3)c(=O)c3c2c2ccccc2n3C)o1		2.06 µM [falling, partial curve]	
COc1ccc(-n2c(CCC(=O)O)ccc2-c2ccc(F)cc2)c(OC)c1	-2.13%		6.51 µM [rising, single point]
CCN(CC)S(=O)(=O)c1ccc(-c2nnc3sc4cccc(C)c4n23)cc1	-11.7%		
CCn1c(=NC(=O)CSC(C)=O)sc2ccccc21	39.9%	20.6 µM [rising, single point]	
O=C(Nc1cccc(C(F)(F)F)c1)c1cccnc1	0.446%		
CC1(C)C2CCC(C2)C1(C)NC(=O)CN1CCN(Cc2ccccc2)CC1 (centres undefined)	13%		0.651 µM [rising, full curve, poor fit]
COC(=O)c1ccc(CSc2nc3c(c(=O)n2-c2ccc(C)cc2)SCC3)o1	42.3%	16.4 µM [rising, single point]	23.1 µM [rising, partial curve]
